Source: PubChem BioAssay AID493246 (Drosophila RNAi Screening Center, 2011)

- Purpose: 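Genome-wide search for dsRNAs that reduce cell number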 (primary screen)
- Cell system: Drosophila Kc and S2R+ cells
- Knock-down reagent: long dsRNA against Drosophila genes
- Measured: 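Cell number per well after knock-down, printed as raw plate values; calls were based on per-plate z-scores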
- Direction: Kc cell number and S2R+ cell number: higher = more cells remaining
- Hit rule: 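Active when the per-plate z-score of cell number is 3 or more in the direction of fewer cells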
The screen tested about 21,000 reagents; shown is an unselected part of those that have a named target and a result. Over the whole deposit, 429 (2%) are marked active. 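Values are raw and not normalised between plates; calls rest on per-plate z-scores that were not deposited.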 The numbers tell different reagents against one gene apart. The record does not give: the amount of reagent, the time to read-out.

gene knocked down | reagent | Kc cell number, rep 1 | Kc cell number, rep 2 | S2R+ cell number, rep 1 | S2R+ cell number, rep 2 | outcome
Jon65Aiv | 1 | 1.39e6 | 1.41e6 | 1.11e6 | 1.20e6 | inactive
pwn | 1 | 1.55e6 | 1.58e6 | 1.24e6 | 1.38e6 | inactive
CG13028 | 1 | 1.41e6 | 1.54e6 | 1.33e6 | 1.35e6 | inactive
Atg8a | 1 | 1.53e6 | 1.49e6 | 1.02e6 | 1.07e6 | inactive
CG3168 | 1 | 5.19e5 | – | 8.12e5 | – | inactive
CG8414 | 1 | 1.46e6 | 1.56e6 | 1.28e6 | 1.46e6 | inactive
sgg | 1 | 1.11e6 | 1.25e6 | 1.06e6 | 1.12e6 | inactive
sgg | 2 | 1.08e6 | 1.25e6 | 1.06e6 | 1.10e6 | inactive
sgg | 3 | 1.47e6 | 1.48e6 | 9.66e5 | 1.06e6 | inactive
Mtpbeta | 1 | 1.35e6 | 1.38e6 | 1.10e6 | 9.84e5 | inactive
CG34428 | 1 | 1.22e6 | 1.32e6 | 1.31e6 | 1.45e6 | inactive
Lk6 | 1 | 1.42e6 | 1.68e6 | 9.94e5 | 1.22e6 | inactive
Lk6 | 2 | 1.52e6 | 1.58e6 | 1.10e6 | 1.16e6 | inactive
CG17163 | 1 | 1.79e6 | 1.79e6 | 1.19e6 | 1.37e6 | inactive
CG18764 | 1 | 1.58e6 | 1.66e6 | 1.37e6 | 1.44e6 | inactive
CG2291 | 1 | 1.55e6 | 1.72e6 | 1.38e6 | 1.55e6 | inactive
CG7295 | 1 | 1.41e6 | 1.48e6 | 1.04e6 | 1.18e6 | inactive

Sorted by “S2R+ cell number, rep 1” (descending): 5 of the entries above
gene knocked down | reagent | Kc cell number, rep 1 | Kc cell number, rep 2 | S2R+ cell number, rep 1 | S2R+ cell number, rep 2 | outcome
CG2291 | 1 | 1.55e6 | 1.72e6 | 1.38e6 | 1.55e6 | inactive
CG18764 | 1 | 1.58e6 | 1.66e6 | 1.37e6 | 1.44e6 | inactive
CG17163 | 1 | 1.79e6 | 1.79e6 | 1.19e6 | 1.37e6 | inactive
Lk6 | 2 | 1.52e6 | 1.58e6 | 1.10e6 | 1.16e6 | inactive
Lk6 | 1 | 1.42e6 | 1.68e6 | 9.94e5 | 1.22e6 | inactive

Additional entries:
gene knocked down | reagent | Kc cell number, rep 1 | Kc cell number, rep 2 | S2R+ cell number, rep 1 | S2R+ cell number, rep 2 | outcome
Gug | 1 | 1.34e6 | 1.40e6 | 1.09e6 | 1.11e6 | inactive
CG12177 | 1 | 1.55e6 | 1.51e6 | 1.04e6 | 1.17e6 | inactive
CG34188 | 1 | 1.49e6 | 1.49e6 | 1.02e6 | 1.14e6 | inactive
Taf3 | 1 | 4.74e5 | – | 7.57e5 | – | inactive
CG7694 | 1 | 1.24e6 | 1.23e6 | 1.09e6 | 1.19e6 | inactive
Inx2 | 1 | 6.01e5 | – | 9.35e5 | – | inactive
salm | 1 | 1.80e6 | 1.75e6 | 1.22e6 | 1.38e6 | inactive
Ttd14 | 1 | 1.29e6 | 1.30e6 | 1.05e6 | 1.11e6 | inactive
Ttd14 | 2 | 1.26e6 | 1.30e6 | 8.75e5 | 9.94e5 | inactive
Syx16 | 1 | 1.43e6 | 1.50e6 | 1.02e6 | 1.21e6 | inactive
CG14086 | 1 | 1.40e6 | 1.59e6 | 1.22e6 | 1.35e6 | inactive
Jhbp4 | 1 | 1.34e6 | 1.39e6 | 1.12e6 | 1.23e6 | inactive
cup | 1 | 1.41e6 | 1.34e6 | 5.24e5 | 6.03e5 | inactive
AP-1mu | 1 | 1.55e6 | 1.58e6 | 1.40e6 | 1.42e6 | inactive
CG10651 | 1 | 1.47e6 | 1.56e6 | 1.31e6 | 3.36e5 | inactive
CG13671 | 1 | 1.42e6 | 1.44e6 | 1.31e6 | 1.19e6 | inactive
CDase | 1 | 5.32e5 | – | 8.53e5 | – | inactive
Pxd | 1 | 1.49e6 | 1.58e6 | 1.11e6 | 1.19e6 | inactive
g | 1 | 1.58e6 | 1.46e6 | 1.18e6 | 1.31e6 | inactive
Kap-alpha3 | 1 | 1.33e6 | 1.39e6 | 7.53e5 | 8.80e5 | active
pxb | 1 | 1.55e6 | 1.73e6 | 1.08e6 | 1.34e6 | inactive
pxb | 2 | 1.42e6 | 1.42e6 | 1.13e6 | 1.25e6 | inactive
pxb | 3 | 1.42e6 | 1.43e6 | 1.15e6 | 1.28e6 | inactive
